For assay [1], the target named is MTA2 (human (endogenous in fibroblasts)) (UniProt O94776). Kind of assay: co-IP.
Assay [2] has as its target T1, SIN3A (human (endogenous in fibroblasts)) (UniProt Q96ST3).
T1 sequence: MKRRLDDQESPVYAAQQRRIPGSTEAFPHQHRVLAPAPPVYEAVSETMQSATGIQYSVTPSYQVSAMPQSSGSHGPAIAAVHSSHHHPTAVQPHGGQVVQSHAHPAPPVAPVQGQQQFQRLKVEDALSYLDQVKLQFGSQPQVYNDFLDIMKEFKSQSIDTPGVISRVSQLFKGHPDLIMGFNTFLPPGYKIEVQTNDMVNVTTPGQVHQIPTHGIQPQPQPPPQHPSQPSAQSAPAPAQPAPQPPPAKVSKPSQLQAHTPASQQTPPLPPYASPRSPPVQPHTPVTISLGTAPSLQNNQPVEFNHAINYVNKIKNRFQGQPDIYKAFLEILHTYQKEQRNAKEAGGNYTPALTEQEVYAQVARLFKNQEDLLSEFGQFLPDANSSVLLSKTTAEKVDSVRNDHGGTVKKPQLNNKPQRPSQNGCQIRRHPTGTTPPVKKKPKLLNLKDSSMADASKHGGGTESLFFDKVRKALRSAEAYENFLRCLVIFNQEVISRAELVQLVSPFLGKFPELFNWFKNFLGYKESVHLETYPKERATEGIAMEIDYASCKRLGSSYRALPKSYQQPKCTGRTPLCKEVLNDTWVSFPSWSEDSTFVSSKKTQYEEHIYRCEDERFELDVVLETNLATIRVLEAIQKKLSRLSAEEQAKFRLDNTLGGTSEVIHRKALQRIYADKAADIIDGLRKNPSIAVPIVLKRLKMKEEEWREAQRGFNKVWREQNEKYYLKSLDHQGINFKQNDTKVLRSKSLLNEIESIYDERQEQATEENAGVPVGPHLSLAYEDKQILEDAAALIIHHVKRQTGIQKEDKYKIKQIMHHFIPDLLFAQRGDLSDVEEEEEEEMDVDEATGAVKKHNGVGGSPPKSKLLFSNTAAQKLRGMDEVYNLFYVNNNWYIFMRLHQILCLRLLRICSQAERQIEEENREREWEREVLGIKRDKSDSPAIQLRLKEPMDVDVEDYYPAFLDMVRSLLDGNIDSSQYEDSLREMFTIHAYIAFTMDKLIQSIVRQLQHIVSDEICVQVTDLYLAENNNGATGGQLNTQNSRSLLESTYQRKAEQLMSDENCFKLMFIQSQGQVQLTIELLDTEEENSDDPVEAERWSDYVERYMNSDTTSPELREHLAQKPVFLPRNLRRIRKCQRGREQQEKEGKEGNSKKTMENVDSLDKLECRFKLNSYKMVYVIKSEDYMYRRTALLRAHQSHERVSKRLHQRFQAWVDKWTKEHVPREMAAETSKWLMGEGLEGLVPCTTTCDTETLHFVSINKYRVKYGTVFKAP
In words: co-IP.

The chains behind the UniProt entries cited, without tags or fusion partners.
UniProt O94776: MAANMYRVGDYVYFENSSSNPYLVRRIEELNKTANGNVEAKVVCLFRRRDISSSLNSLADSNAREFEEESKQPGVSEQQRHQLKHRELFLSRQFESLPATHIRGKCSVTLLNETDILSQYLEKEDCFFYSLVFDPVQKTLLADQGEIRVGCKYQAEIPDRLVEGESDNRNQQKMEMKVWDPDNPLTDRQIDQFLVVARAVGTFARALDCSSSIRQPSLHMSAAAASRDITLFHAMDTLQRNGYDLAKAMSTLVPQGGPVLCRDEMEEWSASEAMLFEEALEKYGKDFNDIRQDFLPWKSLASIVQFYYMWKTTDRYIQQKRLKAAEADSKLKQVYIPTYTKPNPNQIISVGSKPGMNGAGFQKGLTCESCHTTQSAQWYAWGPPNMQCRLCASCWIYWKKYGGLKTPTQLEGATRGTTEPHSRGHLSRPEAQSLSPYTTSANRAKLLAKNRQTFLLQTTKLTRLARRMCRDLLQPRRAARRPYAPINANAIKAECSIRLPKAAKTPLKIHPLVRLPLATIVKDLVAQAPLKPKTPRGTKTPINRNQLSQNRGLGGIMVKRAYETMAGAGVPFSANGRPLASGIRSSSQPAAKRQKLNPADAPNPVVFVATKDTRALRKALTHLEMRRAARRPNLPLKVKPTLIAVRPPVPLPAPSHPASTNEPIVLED
UniProt P49815: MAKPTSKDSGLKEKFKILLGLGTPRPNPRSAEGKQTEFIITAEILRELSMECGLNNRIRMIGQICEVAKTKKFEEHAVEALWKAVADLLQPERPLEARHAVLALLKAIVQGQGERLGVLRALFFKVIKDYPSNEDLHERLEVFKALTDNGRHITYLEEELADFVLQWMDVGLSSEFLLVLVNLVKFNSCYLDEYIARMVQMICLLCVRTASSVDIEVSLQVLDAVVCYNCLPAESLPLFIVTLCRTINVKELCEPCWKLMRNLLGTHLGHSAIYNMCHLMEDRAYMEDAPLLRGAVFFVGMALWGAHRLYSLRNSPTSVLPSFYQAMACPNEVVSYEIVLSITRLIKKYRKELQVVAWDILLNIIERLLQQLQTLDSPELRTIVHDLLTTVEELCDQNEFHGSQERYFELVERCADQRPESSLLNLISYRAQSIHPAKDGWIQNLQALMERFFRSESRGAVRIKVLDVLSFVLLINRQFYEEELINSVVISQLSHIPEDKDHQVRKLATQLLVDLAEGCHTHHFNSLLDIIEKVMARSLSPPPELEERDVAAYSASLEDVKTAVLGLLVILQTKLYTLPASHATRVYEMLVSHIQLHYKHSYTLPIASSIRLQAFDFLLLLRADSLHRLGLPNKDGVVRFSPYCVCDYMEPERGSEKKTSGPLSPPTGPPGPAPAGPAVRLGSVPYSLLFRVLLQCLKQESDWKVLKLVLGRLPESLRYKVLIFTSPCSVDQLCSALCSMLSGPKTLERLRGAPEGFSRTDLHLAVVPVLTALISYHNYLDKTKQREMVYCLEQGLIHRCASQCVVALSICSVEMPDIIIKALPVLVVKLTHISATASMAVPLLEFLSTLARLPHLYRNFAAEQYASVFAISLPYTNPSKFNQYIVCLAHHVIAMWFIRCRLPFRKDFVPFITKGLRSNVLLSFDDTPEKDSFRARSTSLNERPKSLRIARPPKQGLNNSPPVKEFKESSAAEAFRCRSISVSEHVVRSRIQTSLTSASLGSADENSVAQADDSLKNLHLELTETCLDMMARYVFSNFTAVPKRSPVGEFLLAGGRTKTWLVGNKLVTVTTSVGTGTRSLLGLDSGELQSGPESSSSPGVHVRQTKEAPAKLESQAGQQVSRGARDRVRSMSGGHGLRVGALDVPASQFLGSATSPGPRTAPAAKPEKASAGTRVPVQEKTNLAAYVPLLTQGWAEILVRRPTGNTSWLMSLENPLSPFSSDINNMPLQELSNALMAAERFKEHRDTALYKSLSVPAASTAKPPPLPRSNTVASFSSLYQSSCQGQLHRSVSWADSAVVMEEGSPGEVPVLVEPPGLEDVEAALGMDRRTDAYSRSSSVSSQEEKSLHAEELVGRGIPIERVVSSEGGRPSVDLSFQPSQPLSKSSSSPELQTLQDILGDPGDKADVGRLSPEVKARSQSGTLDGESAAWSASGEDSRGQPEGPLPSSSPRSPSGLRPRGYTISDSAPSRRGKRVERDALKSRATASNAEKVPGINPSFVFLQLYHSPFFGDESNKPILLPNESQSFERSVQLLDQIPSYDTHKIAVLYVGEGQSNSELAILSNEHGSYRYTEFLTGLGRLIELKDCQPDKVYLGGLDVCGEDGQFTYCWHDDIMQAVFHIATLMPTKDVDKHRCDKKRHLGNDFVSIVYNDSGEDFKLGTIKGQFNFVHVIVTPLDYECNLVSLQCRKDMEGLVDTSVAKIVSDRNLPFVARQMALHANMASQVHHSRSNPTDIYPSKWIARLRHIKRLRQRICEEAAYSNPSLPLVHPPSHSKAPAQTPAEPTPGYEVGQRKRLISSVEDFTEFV
UniProt P16779: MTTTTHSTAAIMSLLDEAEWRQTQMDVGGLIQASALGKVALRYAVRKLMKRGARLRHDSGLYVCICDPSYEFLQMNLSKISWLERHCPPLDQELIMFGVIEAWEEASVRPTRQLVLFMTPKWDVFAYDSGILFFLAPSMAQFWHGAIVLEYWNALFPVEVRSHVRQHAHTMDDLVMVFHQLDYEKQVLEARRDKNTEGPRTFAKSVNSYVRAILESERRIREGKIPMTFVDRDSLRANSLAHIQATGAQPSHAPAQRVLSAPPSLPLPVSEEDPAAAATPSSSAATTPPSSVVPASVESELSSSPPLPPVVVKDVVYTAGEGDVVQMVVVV

Assay [3] addresses tuberous sclerosis protein 2 (human (endogenous in fibroblasts)) (UniProt P49815). In words: co-IP.
Assay [4] has the same target. In words: co-IP; whole cell lysates of uninfected pUL38-expressing fibroblasts (HF-UL38); antibodies against HDAC1 or TSC2; Western blot with anti-pUL38.

Results are given in words; binding and its absence hold for the method and conditions named. In cells and extracts the contact can be indirect. Some results given as binding are weak or reduced against the parent protein; the word gives no strength.

For HCMV pUL38 (from UniProt P16779 1-331), the binding entry in assay [1] is on record as “binds”; in assay [2], “no binding”; in assay [3], “binds”.

Consider “HCMV pUL38 expressed in uninfected fibroblasts (from UniProt P16779 1-331)”, for which the binding entry in assay [4] is “binds”.

The record behind these values is paper PMC2891856.
